Laboratory results taken from PubChem BioAssay (NCATS).
This list was built around the results that the source calls inconclusive (neither active nor inactive); the mix of calls is not that of the screen. For some assays here: A potency beside an inconclusive call is a rough fit, not a confirmed value. Calls of active or inactive are those of the source. Calls come from the whole dose curve; as a rule, active = well fitted curve in the direction sought with a large enough effect; inconclusive = small, poorly fitted or top-dose-only effect, or another doubt; inactive = no such curve, though single readings can be large; an effect the other way counts as inactive or inconclusive.

Legend:
[1] = Quantitative High-Throughput drug screen in 47 multiple myeloma cell lines against the NCATS MIPE library collection: Karpas417_ECACC cell viability assay (AID 1918961); conditions: Karpas417 myeloma viability, CellTiter-Glo ATP luminescence, 48 h; viability (% of DMSO): at 45.8 µM (top of the series)
Method in brief: (§1)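 Steps: seed 500 cells per well; pin-transfer MIPE 4.0 library; incubate 48 h at 37C, 5% CO2, humidified; add CellTiter-Glo, 5 min room temperature; read luminescence.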

[2] = Quantitative High-Throughput drug screen in 47 multiple myeloma cell lines against the NCATS MIPE library collection: JIM1_ECACC cell viability assay (AID 1918964); conditions: JIM1 myeloma viability, CellTiter-Glo ATP luminescence, 48 h; viability (% of DMSO): at 45.8 µM (top of the series)
Method in brief: as §1

[3] = Quantitative High-Throughput drug screen in 47 multiple myeloma cell lines against the NCATS MIPE library collection: INA6_PLB cell viability assay (AID 1918965; note: nearly all actives have a fitted effect of over 55% in size); conditions: INA6 myeloma viability, CellTiter-Glo ATP luminescence, 48 h; viability (% of control): at 45.8 µM (top of the series)
Method in brief: as §1

[4] = Quantitative High-Throughput drug screen in 47 multiple myeloma cell lines against the NCATS MIPE library collection: JJN3_DSMZ cell viability assay (AID 1918966; note: nearly all actives have a fitted effect of over 50% in size)
Method in brief: as §1

[5] = Quantitative High-Throughput drug screen in 47 multiple myeloma cell lines against the NCATS MIPE library collection: Karpas25_ECACC cell viability assay (AID 1918968; note: nearly all actives have a fitted effect of over 35% in size)
Method in brief: as §1

[6] = Quantitative High-Throughput drug screen in 47 multiple myeloma cell lines against the NCATS MIPE library collection: KMS27_JCRB cell viability assay (AID 1918970); conditions: KMS27 myeloma cells, CellTiter-Glo ATP viability, 48 h; viability (% of DMSO): at 45.8 µM (top of the series); note: nearly all actives have a fitted effect of over 30% in size
Method in brief: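 CellTiter-Glo luminescence after 48 h drug exposure at 37 °C; 500 cells/well, 1536-well format, pin-tool compound addition; DMSO = 100%, media-only = 0% viability.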

[7] = Quantitative High-Throughput drug screen in 47 multiple myeloma cell lines against the NCATS MIPE library collection: KMS12BM_JCRB cell viability assay (AID 1918971); note: nearly all actives have a fitted effect of over 35% in size
Method in brief: (§2)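 We plated 500 myeloma cells per well, pinned in MIPE 4.0 compounds, and incubated for 48 hours at 37C. ATP was then quantified with CellTiter-Glo, with DMSO and media-only wells defining 100% and 0%.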

[8] = Quantitative High-Throughput drug screen in 47 multiple myeloma cell lines against the NCATS MIPE library collection: KMS21BM_JCRB cell viability assay (AID 1918974); conditions: ATP luminescence, 48 h; viability: at 45.8 µM (top of the series)
Method in brief: as §1

[9] = Quantitative High-Throughput drug screen in 47 multiple myeloma cell lines against the NCATS MIPE library collection: MMM1_PLB cell viability assay (AID 1918976); note: nearly all actives have a fitted effect of over 35% in size
Method in brief: (§3)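 Inhibition of viability over 48 h was scored by ATP content (CellTiter-Glo) in 500-cell wells. Zero and full viability were defined by media-only and DMSO-only wells.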

[10] = Quantitative High-Throughput drug screen in 47 multiple myeloma cell lines against the NCATS MIPE library collection: MOLP8_DSMZ cell viability assay (AID 1918977); note: nearly all actives have a fitted effect of over 45% in size
Method in brief: as §3

[11] = Quantitative High-Throughput drug screen in 47 multiple myeloma cell lines against the NCATS MIPE library collection: MM1S_ATCC cell viability assay (AID 1918980); note: nearly all actives have a fitted effect of over 45% in size
Method in brief: as §3

[12] = Quantitative High-Throughput drug screen in 47 multiple myeloma cell lines against the NCATS MIPE library collection: KMS20_JCRB cell viability assay (AID 1918973); conditions: CellTiter-Glo ATP, 48 h; viability (% of DMSO): at 45.8 µM (top of the series); note: nearly all actives have a fitted effect of over 45% in size
Method in brief: as §1

[13] = Quantitative High-Throughput drug screen in 47 multiple myeloma cell lines against the NCATS MIPE library collection: KMS26_JCRB cell viability assay (AID 1918975); conditions: KMS26 myeloma cells viability, CellTiter-Glo ATP, 48 h; viability (% of DMSO): at 45.8 µM (top of the series); note: nearly all actives have a fitted effect of over 45% in size
Method in brief: as §2

[14] = Quantitative High-Throughput drug screen in 47 multiple myeloma cell lines against the NCATS MIPE library collection: NCIH929_DSMZ cell viability assay (AID 1918978); conditions: NCI-H929 myeloma viability, CellTiter-Glo ATP, 48 h; viability, % of control: at 45.8 µM (top of the series); note: nearly all actives have a fitted effect of over 35% in size
Method in brief: as §3

[15] = Quantitative High-Throughput drug screen in 47 multiple myeloma cell lines against the NCATS MIPE library collection: MM1R_ATCC cell viability assay (AID 1918981); note: nearly all actives have a fitted effect of over 35% in size
Method in brief: as §3

[16] = Quantitative High-Throughput drug screen in 47 multiple myeloma cell lines against the NCATS MIPE library collection: JIM3_ECACC cell viability assay (AID 1918963; note: nearly all actives have a fitted effect of over 35% in size); conditions: JIM3 myeloma viability, CellTiter-Glo ATP, 48 h; viability, percent of control: at 45.8 µM (top of the series)
Method in brief: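 Luminescent ATP measurement with CellTiter-Glo gives viability, scaled between DMSO-only wells (100%) and media-only wells (0%). Cells, 500 per well, faced library compounds for 48 hours at 37C.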

[17] = Quantitative High-Throughput drug screen in 47 multiple myeloma cell lines against the NCATS MIPE library collection: OCIMY1_PLB cell viability assay (AID 1918979); note: nearly all actives have a fitted effect of over 35% in size
Method in brief: as §3

[18] = Quantitative High-Throughput drug screen in 47 multiple myeloma cell lines against the NCATS MIPE library collection: H1112_PLB cell viability assay (AID 1918967; note: nearly all actives have a fitted effect of over 30% in size)
Method in brief: as §1

[19] = Quantitative High-Throughput drug screen in 47 multiple myeloma cell lines against the NCATS MIPE library collection: KMS12PE_JCRB cell viability assay (AID 1918972); conditions: KMS12PE myeloma viability, CellTiter-Glo ATP, 48 h; viability: at 45.8 µM (top of the series); note: nearly all actives have a fitted effect of over 30% in size
Method in brief: as §1
Potency is the fitted concentration of half-maximal effect.

SMILES	Potency [1]	Potency [2]	Potency [3]	Potency [4]	Potency [5]	Potency [6]	Potency [7]	Potency [8]	Potency [9]	Potency [10]	Potency [11]	Potency [12]	Potency [13]	Potency [14]	Potency [15]	Potency [16]	Potency [17]	Potency [18]	Potency [19]	viability (% of DMSO) [12]
N#C[C@H](O[C@@H]1O[C@H](CO[C@@H]2O[C@H](CO)[C@H](O)[C@H](O)[C@H]2O)[C@H](O)[C@H](O)[C@H]1O)c1ccccc1	inconclusive: 37.2 µM [rising, partial curve, poor fit]	inconclusive: 5.26 µM [cytotoxic, partial curve, poor fit]	active: 13.2 µM	active: 18.7 µM	active: 18.7 µM	active: 6.62 µM	active: 20.9 µM	inconclusive: 13.2 µM [rising, partial curve]	active: 23.5 µM	inconclusive: 26.4 µM [cytotoxic, partial curve, poor fit]	inconclusive: 33.2 µM [cytotoxic, single point]	–	–	–	–	–	–	–	–	–
O=C1C=CC[C@@H]2[C@H]3CCCN4CCC[C@@H](CN12)[C@@H]34	inactive	inconclusive: 37.2 µM [cytotoxic, single point]	inconclusive: 1.32 µM [rising, full curve, poor fit]	inconclusive: 0.0166 µM [cytotoxic, full curve, poor fit]	inconclusive: 4.69 µM [cytotoxic, partial curve, poor fit]	inconclusive: 0.0037 µM [cytotoxic, full curve, poor fit]	inconclusive: 16.6 µM [cytotoxic, partial curve, poor fit]	inconclusive: 37.2 µM [rising, partial curve]	inconclusive: 9.35 µM [cytotoxic, partial curve, poor fit]	inconclusive: 0.0132 µM [cytotoxic, full curve, poor fit]	active: 20.9 µM	inactive	inconclusive: 4.18 µM [cytotoxic, full curve, poor fit]	inconclusive: 20.9 µM [cytotoxic, partial curve, poor fit]	inconclusive: 2.64 µM [cytotoxic, full curve, poor fit]	–	–	–	–	–
CCN1CCN(C(=O)Cc2ccc(Nc3ncc(F)c(Nc4ccc(C(=O)Nc5ccccc5Cl)cc4)n3)cc2)CC1	active: 2.96 µM	–	–	–	–	–	–	inconclusive: 2.64 µM [cytotoxic, full curve, poor fit]	inconclusive: 8.33 µM [cytotoxic, full curve, poor fit]	–	–	active: 1.18 µM	active: 8.33 µM	–	–	active: 3.72 µM	active: 7.43 µM	–	–	–
C[C@]12CC[C@H]3[C@@H](CC[C@@]45O[C@H]4C(O)=C(C#N)C[C@]35C)[C@H]1CC[C@H]2O	inactive	inactive	inconclusive: 18.7 µM [cytotoxic, partial curve, poor fit]	–	–	inconclusive: 0.0083 µM [rising, full curve, poor fit]	inactive	inconclusive: 3.72 µM [rising, partial curve, poor fit]	inconclusive: 0.0033 µM [rising, full curve, poor fit]	inconclusive: 2.96 µM [cytotoxic, full curve, poor fit]	–	inactive	inconclusive: 33.2 µM [cytotoxic, single point]	–	inconclusive: 0.0047 µM [rising, full curve, poor fit]	–	–	inconclusive: 46.9 nM [rising, full curve]	inconclusive: 1.2 nM [rising, full curve, poor fit]	–
CN1C(=O)COc2c(C(=O)NC3CN4CCC3CC4)cc(Cl)cc21 (stereo not drawn)	inconclusive: 18.7 µM [rising, partial curve, poor fit]	inconclusive: 4.18 µM [rising, full curve, poor fit]	inconclusive: 8.33 µM [rising, full curve, poor fit]	inconclusive: 1.87 µM [cytotoxic, full curve, poor fit]	–	inconclusive: 37.2 µM [rising, single point]	inactive	inconclusive: 33.2 µM [rising, partial curve]	inconclusive: 0.0296 µM [cytotoxic, full curve, poor fit]	inactive	inconclusive: 37.2 µM [cytotoxic, single point]	–	–	inactive	–	–	–	–	–	inconclusive: 153%
COc1ccc2c(c[n+](C)c3c4cc5c(cc4ccc23)OCO5)c1OC	inconclusive: 37.2 µM [rising, partial curve, poor fit]	active: 4.18 µM	–	active: 2.64 µM	active: 7.43 µM	–	–	inconclusive: 14.8 µM [rising, partial curve, poor fit]	–	active: 3.32 µM	–	inconclusive: 3.72 µM [cytotoxic, full curve, poor fit]	active: 3.72 µM	–	active: 2.35 µM	–	active: 7.43 µM	–	–	–

Reformatted bar-delimited: two of the compounds above.
SMILES | Potency [1] | Potency [2] | Potency [3] | Potency [4] | Potency [5] | Potency [6] | Potency [7] | Potency [8] | Potency [9] | Potency [10] | Potency [11] | Potency [12] | Potency [13] | Potency [14] | Potency [15] | Potency [16] | Potency [17] | Potency [18] | Potency [19] | viability (% of DMSO) [12]
CCN1CCN(C(=O)Cc2ccc(Nc3ncc(F)c(Nc4ccc(C(=O)Nc5ccccc5Cl)cc4)n3)cc2)CC1 | active: 2.96 µM | – | – | – | – | – | – | inconclusive: 2.64 µM [cytotoxic, full curve, poor fit] | inconclusive: 8.33 µM [cytotoxic, full curve, poor fit] | – | – | active: 1.18 µM | active: 8.33 µM | – | – | active: 3.72 µM | active: 7.43 µM | – | – | –
CN1C(=O)COc2c(C(=O)NC3CN4CCC3CC4)cc(Cl)cc21 (stereo not drawn) | inconclusive: 18.7 µM [rising, partial curve, poor fit] | inconclusive: 4.18 µM [rising, full curve, poor fit] | inconclusive: 8.33 µM [rising, full curve, poor fit] | inconclusive: 1.87 µM [cytotoxic, full curve, poor fit] | – | inconclusive: 37.2 µM [rising, single point] | inactive | inconclusive: 33.2 µM [rising, partial curve] | inconclusive: 0.0296 µM [cytotoxic, full curve, poor fit] | inactive | inconclusive: 37.2 µM [cytotoxic, single point] | – | – | inactive | – | – | – | – | – | inconclusive: 153%
